From article PMC10353892

The chains behind the UniProt entries cited, without tags or fusion partners.
UniProt Q00168: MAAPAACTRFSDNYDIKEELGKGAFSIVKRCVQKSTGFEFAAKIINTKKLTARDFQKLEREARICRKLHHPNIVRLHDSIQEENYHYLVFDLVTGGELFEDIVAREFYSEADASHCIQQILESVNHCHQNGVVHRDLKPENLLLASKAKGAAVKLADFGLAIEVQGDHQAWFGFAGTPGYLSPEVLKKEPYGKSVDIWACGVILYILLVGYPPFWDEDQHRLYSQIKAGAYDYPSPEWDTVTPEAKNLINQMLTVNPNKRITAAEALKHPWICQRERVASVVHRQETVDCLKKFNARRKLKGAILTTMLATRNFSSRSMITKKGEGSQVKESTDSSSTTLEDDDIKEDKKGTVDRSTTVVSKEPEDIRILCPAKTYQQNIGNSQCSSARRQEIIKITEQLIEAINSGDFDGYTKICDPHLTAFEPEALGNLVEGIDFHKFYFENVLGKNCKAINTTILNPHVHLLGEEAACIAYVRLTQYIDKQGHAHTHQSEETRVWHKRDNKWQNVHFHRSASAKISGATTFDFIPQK
UniProt P46824: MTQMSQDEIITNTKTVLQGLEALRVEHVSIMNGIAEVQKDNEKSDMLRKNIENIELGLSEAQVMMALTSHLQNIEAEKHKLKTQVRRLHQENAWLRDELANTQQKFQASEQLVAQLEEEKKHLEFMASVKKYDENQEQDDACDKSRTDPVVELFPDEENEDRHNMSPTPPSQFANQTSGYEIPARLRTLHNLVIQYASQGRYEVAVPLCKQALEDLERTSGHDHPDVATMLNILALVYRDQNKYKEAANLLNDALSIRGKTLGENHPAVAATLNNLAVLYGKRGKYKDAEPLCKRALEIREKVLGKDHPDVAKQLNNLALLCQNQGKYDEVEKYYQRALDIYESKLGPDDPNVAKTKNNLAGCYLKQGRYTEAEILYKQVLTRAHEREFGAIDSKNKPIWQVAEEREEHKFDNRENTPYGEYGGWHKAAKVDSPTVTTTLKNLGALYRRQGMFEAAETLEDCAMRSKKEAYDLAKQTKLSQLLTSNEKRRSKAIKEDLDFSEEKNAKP

T1: Tws-GFP (Drosophila) (UniProt P36872)
T1 sequence: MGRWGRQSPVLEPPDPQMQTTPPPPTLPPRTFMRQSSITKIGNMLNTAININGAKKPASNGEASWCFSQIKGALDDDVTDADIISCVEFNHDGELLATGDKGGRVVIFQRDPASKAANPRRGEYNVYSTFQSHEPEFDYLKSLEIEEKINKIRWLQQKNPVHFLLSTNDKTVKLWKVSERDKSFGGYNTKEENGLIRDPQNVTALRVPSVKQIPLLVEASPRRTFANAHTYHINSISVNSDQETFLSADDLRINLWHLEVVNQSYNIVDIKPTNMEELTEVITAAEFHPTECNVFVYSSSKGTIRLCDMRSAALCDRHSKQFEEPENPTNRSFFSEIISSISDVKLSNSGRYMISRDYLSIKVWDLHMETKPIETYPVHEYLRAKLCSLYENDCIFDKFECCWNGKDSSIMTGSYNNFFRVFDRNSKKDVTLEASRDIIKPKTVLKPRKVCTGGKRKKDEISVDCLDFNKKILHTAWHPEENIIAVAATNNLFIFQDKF

T2: GFP-Ote^WT (transgenic embryos) (Drosophila) (UniProt P20240)
T2 sequence: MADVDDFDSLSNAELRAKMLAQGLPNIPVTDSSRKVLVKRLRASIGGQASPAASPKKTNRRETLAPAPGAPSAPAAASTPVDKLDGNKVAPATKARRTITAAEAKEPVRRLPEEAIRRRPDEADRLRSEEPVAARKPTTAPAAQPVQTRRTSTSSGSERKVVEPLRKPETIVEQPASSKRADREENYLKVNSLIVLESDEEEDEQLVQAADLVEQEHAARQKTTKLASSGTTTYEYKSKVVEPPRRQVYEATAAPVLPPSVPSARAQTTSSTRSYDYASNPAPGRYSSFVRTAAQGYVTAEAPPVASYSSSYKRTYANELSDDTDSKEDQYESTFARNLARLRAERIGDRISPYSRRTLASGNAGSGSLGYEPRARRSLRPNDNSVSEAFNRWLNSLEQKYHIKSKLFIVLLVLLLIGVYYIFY

B1: otefin (protein, UniProt P20240 1-424)
chain: T2 sequence
B2: Akap200 (protein, UniProt Q9VLL3 1-753)
chain: MGKAQSKRSIDITTDPKKVGEGDEVAGKVEKIDVDQKTDAPAVNGDAATPKEGGDEAAAVEKKETEEHSENDKDLTTEKSAAVAEGGDAVAETAKGEEGSPKEAAAGEDITPLADESIKSKSKKDKVKKKWSFRSISFGKKDKQKPAKSEEATSPTSGTTSPTTAEAEAAPAGDAAVAEPSVATNGEAEKPAETATATSEPASKDEKPAENGSATEQEKQANGETEKAAPAPSTVEEAAKPKPAEEPATVTATESNTTATEEVPVKESQPEPEVVTNGHGAGEALTNGSSNGLAESPVTETAPVADNIPSNVDDEPPHQNGTNGTTTPPPTPVATEIEKGQQIEASSEVIETVTPSQAEEEVVAAIIKAVSSEPEAETETETEAEGFVLVAPVSTEVEVPVSISPIEPVAEVSQVKIEPLVEIPEVEAKSVADVSEADTESVPKVSELKTEVSEIEFESVIVETRSSSPPPPLPKSPPPSRVSAFVLSEDVIEEQVTPNVPEVNDVKPDEIEQQAISIVAEITEQAAEIVTEQEKQQEEAKVDSVPETIEESSSTVVVEEVLPVQNDEVTAPSPTPDDVQKPIEDQDTPDEKESYPVPDPIDPAAVNDEVAVTEAVDCEVEKETGSISSNVAESSSVSDEQAAIENQVEILEEQTVAVEETTEQETSDQQVISEEAHSDNDKENEIDLVENIISDLDAPITKAGGDLLVELDARSAEQEGESNNKVDLAKDLKEKNAAAADVTTQEQLPVTCE
B3: HBS1 (protein, UniProt Q9W074 1-670)
chain: MSRHRIVRTMDYNDEYDGYDDIYGHSVEDEHCISPTDAQQWLYDRARGQQSISAFISKNKDIQEEEADEDEDEDAAFAKARRDSESFQMPQLDEIEQAKLSSCVDEVRSVVGDAVSERRIVETSMKFDYDMQKILDEILNEETNKSAKPAVNKMKAPAAPVLPKTVSKTVPTPPPKISLKEPRRGFEIPSPKVPSSPVVSGRNTPVDISAGDDISRSSATVFKVSKEQAVRNARQLYEKERADQKSHIHMIVIGHVDAGKSTLMGHLLYDTGNVSQRVMHKHEQESKKLGKQSFMYAWVLDETGEERARGITMDVGQSRIETKTKIVTLLDAPGHKDFIPNMISGATQADVALLVVDATRGEFESGFELGGQTREHAILVRSLGVNQLGVVINKLDTVGWSQDRFTEIVTKLKSFLKLAGFKDSDVSFTPCSGLTGENLTKKAQEPALTNWYSGRHLLDVIENFKIPERAIDRPLRMSVSDIYKGTGSGFCISGRVETGVLCLNDKVLVGASREQAQVKSLTMNEFPQTCVFAGDQVSVTLPALDINNVTVGCIISDPQTPIPVTTRFQARIIVFNVKVPITMGFPVLLHHQSLIEPAVVCKLTASIHKSTGEVVKKKPRCLGNNSCALVELETSRPICIERYADFKELGRVMLRVAGVTIAAGMVTKIR
B4: CG7414 (eIF2A) (protein, UniProt Q9VNX8 1-638)
chain: MAAAADLVVPTLAIRSSVAVELWSSAGSKQPFEHKPHLPREETKSSRSICFSSNGRYFAYSNGQEVKVLQASRDSAASWPVICVLPRPKAFYLQFSPRGSYLCTWEHYAITKDRPEGSPNLLVYEVATGVEVFAIVQKNQADWQPSWSADESIFALVVGGEALFYDLGEGAEKGFATTSRKIGGSRGGMLSLGPGNCPPFLAFYTPGAKGAPSMCKLYKYPALGQNQTVACKSFFQADRVEMLWNKRGSGLLLLTSTEVDKSGASYYGNQAVHFMATKGDTCSVPLSKEGPVHCVKWSPKATEFVVVYGFMPSKAALYNLKCDVVFDFGEGPRNCAYFNPFGNLIALAGFGNLPGAVEVWDVSKREKLANLKCADTTVFEWHPNGEWFVTATTAPRLRISNGFKVYHYSGALLHETMWPQGQELLGIEWQQFADKTFSEPKITKAKHEGIKSSQPEASKKAYTPPHLRLLKEGKNPEKYLPQPSIPGLAPTAAAGGVNGNKRNNKNKQRSARKDVNVVNGGDADSAPTEVVDQAAPVARQSPVFVAAEERKPQHTPRQKYQPDNAADQPPNSYGQGHPNGQHISDKERKIRSVAKKLSDIKKLKVRRSQGENLELNQLNKIKMEAQYLDELKALKQSA
B5: chb (Orbit) (protein, UniProt Q9NBD7 1-1491)
chain: MAYRKPSDLDGFIQQMPKADMRVKVQLAEDLVTFLSDDTNSIVCTDMGFLIDGLMPWLTGSHFKIAQKSLEAFSELIKRLGSDFNAYTATVLPHVIDRLGDSRDTVREKAQLLLRDLMEHRVLPPQALIDKLATSCFKHKNAKVREEFLQTIVNALHEYGTQQLSVRVYIPPVCALLGDPTVNVREAAIQTLVEIYKHVGDRLRPDLRRMDDVPASKLAMLEQKFDQVKQEGLLLPSALKNTNGNGVGLDEADNIGLRERPTRMIKRPLHSAVSSSLRPKPNVNDVTGDAGAVTMESFESSFEVVPQLNIFHAKDMDDIYKQVLVIISDKNADWEKRVDALKKIRALLILSYHTQPQFVAVQLKELSLSFVDILKEELRSQVIREACITIAYMSKTLRNKLDAFCWSILEHLINLIQNSAKVIASASTIALKYIIKYTHAPKLLKIYTDTLNQSKSKDIRSTLCELMVLLFEEWQTKALERNATVLRDTLKKSIGDADCDARRHSRYAYWAFRRHFPELADQIYGTLDIAAQRALEREREGGGGGGTGTGTGTAPETRRTVSRIGRTPGTLQKPTPSMRSISAVDTAAAQRAKVRAQYTLYSRQRKPLGPNNSNQASMTGAAASGSLPRPRLNSNSGGTPATTPGSVTPRPRGRAGVSQSQPGSRSTSPSTKLRDQYGGIGNYYRGATGAIPKKASGIPRSTASSRETSPTRSGGGLMKRSMYSTGAGSRRTPERNNPVRPSAAARLLAQSREAEHTLGVGDDGQPDYVSGDYMRSGGMRMGRKLMGRDESDDIDSEASSVCSERSFDSSYTRGNKSNYSLSGSHTRLDWSTQRAPFDDIETIIQFCASTHWSERKDGLISLTQYLADGKELTQQQLKCVLDMFRKMFMDTHTKVYSLFLDTVTELILVHANELHEWLFILLTRLFNKLGTDLLNSMHSKIWKTLQVVHEYFPTQLQLKELFRIISDSTQTPTTKTRIAILRFLTDLANTYCKSSDFPSDQSQACERTVLKLAQLAADQKSMELRSQARSCLVALYNLNTPQMTLLLADLPKVYQDSARSCIHSHMRRQSQSCNSGANSPSSSPLSSSSPKPLQSPSVGPFASLQSHHHQLSISSTSPRSRQSSVEQELLFSSELDIQHNIQKTSEEIRHCFGGQYQTALAPNGFNGHLQYHDQGQQDSCASLSSNSKTQSSANTTQSNTPESATMRLDNLERERTTQNAKSPTDDAKVITVSINMAENGELILASNLMESEVVRVALTLTKDQPVELLQTSLTNLGICIKGGNCELPNKHFRSIMRMLLNILEAEHTDVVIAGLHVLSKIMRSNKMRHNWMHFLELILLKIIQCYQHSKEALRDIDSMIPRIAPSLPLDLSINIVNPVIATGEFPTNLCAIKILLEVTEHHGSEITDAHLDIVFPNLARSADDTQSMVRKAAVFCIVKLYFVLGEEKVKPKLSVLNPSKVRLLNVYIEKQRNCISGGGSSTKNSSAASSS
B6: Bocksbeutel (Bocks) (protein, UniProt Q709R6 1-399)
chain: MSDLSYLDTLGNKELLAKCLEHGLPGVPVTDSTRSVIIRRLKAKITGVPLNKSKSASKKAIPRRETVHGSQVTTPTSEPVRRTPGKSAGRTSSNNNKISEQSRRTIAYGLDNTSISGRSVQTTTTVSDMSSQSEDDDSYMVDSPVPNYSKDQQPRRYVSLAKSGVLTTSYTREVDQPLYEQEDIPRSYTYERPHVPAATLHALPTYEPRIEPSTYRPTDLGFSRPLLTQTNLNSTSYEESSTYNPKLSPISPRNTFSGSARPFGGPAPAPAPIRQRQSVPVSGSNLARGRLLQPTTAVNTLYPQLNEFYDQPNDAGEPMETESESEVEEVPINSHFQKNRFSPLARKPLVRHHDQVSPMAQFRALAVSLDQKYNLKFYLILVVSVMLATMVYVVLTPNA

biological target: T1, Tws-GFP (Drosophila); assay: affinity purification with mass spectrometry; GFP-Trap agarose on lysates of 0-2 h embryos expressing the GFP fusion, GFP alone as control; 20 mM Tris pH 7.5, 150 mM NaCl, 2 mM MgCl2, 0.5% Triton X-100, 4°C; three experiments

| binding | Molecule |
| --- | --- |
| binds | MEP-1 (Drosophila (endogenous in embryos)) |
| binds | CaMKII (from UniProt Q00168 1-530) (enzyme) |
| binds | Klc (from UniProt P46824 1-508) |
| binds | Vtd/Scc1 (Drosophila (endogenous in embryos)) |
| binds | Ctf4 (Drosophila (endogenous in embryos)) |
| binds | Nocte (Drosophila (endogenous in embryos)) |
| binds | Lost (Drosophila (endogenous in embryos)) |
| binds | B1 |
| binds | B2 |
| binds | B3 |
| binds | B4 |
| binds | B5 |

biological target: T2, GFP-Ote^WT (transgenic embryos) (Drosophila); assay: as above

| binding | Molecule |
| --- | --- |
| binds | girdin (Drosophila (endogenous in embryos)) |
| binds | Rod (Drosophila (endogenous in embryos)) |
| binds | B6 |

Results are given in words; binding and its absence hold for the method and conditions named. In cells and extracts the contact can be indirect. These calls come from enrichment with a bait or labelling near it, and not all partners need be listed. Where a sequence is shown, tags or fusion partners need not be part of it.
